Data on two sequences can be found in US20150065354.

Tags and fusion partners may be left off the protein sequences shown. For some assays here: Construct, isoform or probe ends are uncertain for at least one entry.

For data set [1], the system named is T1, XPD Mbu helicase (Rad3-related DNA helicase) (Methanococcoides burtonii).
T1 sequence (limits assumed): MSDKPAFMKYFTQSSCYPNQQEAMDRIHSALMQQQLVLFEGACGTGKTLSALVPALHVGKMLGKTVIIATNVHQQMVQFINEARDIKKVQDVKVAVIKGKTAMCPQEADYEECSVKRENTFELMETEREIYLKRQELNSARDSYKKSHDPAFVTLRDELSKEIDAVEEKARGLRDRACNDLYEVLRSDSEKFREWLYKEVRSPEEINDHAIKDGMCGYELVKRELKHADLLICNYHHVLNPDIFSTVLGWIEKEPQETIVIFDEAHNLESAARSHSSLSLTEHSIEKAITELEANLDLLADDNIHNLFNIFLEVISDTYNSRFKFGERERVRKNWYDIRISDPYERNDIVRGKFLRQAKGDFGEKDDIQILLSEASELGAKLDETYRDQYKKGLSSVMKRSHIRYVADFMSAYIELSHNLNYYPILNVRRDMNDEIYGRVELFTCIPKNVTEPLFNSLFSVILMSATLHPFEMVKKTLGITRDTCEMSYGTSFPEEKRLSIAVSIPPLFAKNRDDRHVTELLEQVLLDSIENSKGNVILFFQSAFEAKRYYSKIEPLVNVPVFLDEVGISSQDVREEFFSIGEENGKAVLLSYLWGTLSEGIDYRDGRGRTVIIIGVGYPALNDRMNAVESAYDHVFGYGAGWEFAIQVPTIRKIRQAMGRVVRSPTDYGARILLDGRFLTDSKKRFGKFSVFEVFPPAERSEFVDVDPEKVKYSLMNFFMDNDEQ
The data set can be described thus: binding assay. The following applies: 3' cholesterol on primer SEQ 64; iSp18 spacer; four 2'-OMe-U at 5' end; nanopore (MspA) helicase-controlled DNA movement, 5'-3'; 400 mM NaCl, 10 mM Hepes pH 8.0, 1 mM ATP, 1 mM MgCl2, 1 mM DTT, +140 mV; purified recombinant protein; protein details: ONLP3696.

Data set [2] has the same test system. Briefly: activity assay. To be noted: fluorescence strand displacement (unwinding); 100 mM Hepes pH 8.0, 1 mM ATP, 10 mM MgCl2, 100 mM to 1 M KCl; active at 1 M KCl; purified recombinant protein; protein details: ONLP3696.

As to “TTTTTTTTTTTTTTTTTTTTTTTTTTTTTTTTTTTTTTTTTTTTTTTTTTTTTTGGTTGTTTCTGTTGGTGCTGATATTGCTTTTGATGCCGACCCTAAATTTTTTGCCTGTTTGGTTCGCTTTGAGTCTTCTTCGGTTCCGACTACCCTCCCGACTGCCTATGATGTTTATCCTTTGAATGGTCGCCATGATGGTGGTTATTATACCGTCAAGGACTGTGTGACTATTGACGTCCTTCCCCGTACGCCGGGCAATAACGTTTATGTTGGTTTCATGGTTTGGTCTAACTTTACCGCTACTAAATGCCGCGGATTGGTTTCGCTGAATCAGGTTATTAAAGAGATTATTTGTCTCCAGCCACTTAAGTGAGGTGATTTATGTTTGGTGCTATTGCTGGCGGTATTGCTTCTGCTCTTGCTGGTGGCGCCATGTCTAAATTGTTTGGAGGCGGTC / TGACCGCCTCCAAACAATTTAGACATGG / AGCGACTAACAAACACAATCTGATGGCTTTTTTTTTTTTTTTTTTTTTTTTTTTTTT [400mer PhiX174 ssDNA with 50T 5' leader and annealed primers]”, the binding result in data set [1] is “binds”. In the case of “CCCCCCCCACCCCCCCCCACCCCCCCCCACCCCCCCCCCCTATTCTGTTTATGTTTCTTGTTTGTTAGCCCTATTCTGT / ACAGAATAGGGCTAACAAACAAGAAACATAAACAGAATAG [fluorescent helicase substrate]”, the “activity on this sequence” value in data set [2] is recorded as “active”.
